For at least one entry, the source does not settle the construct or the ends of the probe.
Molecular target: UvsX (T6) (Enterobacteria phage T6) (UniProt P04529)
Assay: activity assay
Settings: RPA amplification with UvsY/gp32; lower final signal than T4 UvsX; purified recombinant protein; protein details: C-terminal His6

ACGGCATTAACAAACGAACTGATTCATCTGCTTGG / CCTTAATTTCTCCGAGAACTTCATATTCAAGCGTC [J1/K2 RPA primers]
activity on this sequence: active

— US20090029421, “Recombinase polymerase amplification” (published 2009)
